# The supplement of paper PMC8728848
# The other results are listed elsewhere or left out.
# How the values were obtained:
# Test in all cases: glycan array binding signal (z-score within array); higher = stronger binding
# Settings in all cases: glycan notation: IUPAC condensed, linker removed
# [1] = molecular target: Neu5Ac(a2-3)Gal(b1-3)GlcNAc6S
# Procedure, shortened: (§1)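 Negative Z-scores can be read as non-binding. The Z-score is calculated within each array and then averaged across arrays of one protein sequence at different concentrations or buffers and across linkers. Arrays, 3228 in all, were curated from the Consortium for Functional Glycomics database and kept only where the protein sequence was available.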
# [2] = molecular target: Neu5Ac(a2-3)Gal(b1-3)[Fuc(a1-4)]GlcNAc
# Procedure, shortened: as §1
# [3] = molecular target: Neu5Ac(a2-3)Gal(b1-3)[Fuc(a1-4)]GlcNAc(b1-3)Gal(b1-3)[Fuc(a1-4)]GlcNAc
# Procedure, shortened: as §1
# [4] = molecular target: Neu5Ac(a2-3)Gal(b1-3)[Fuc(a1-4)]GlcNAc(b1-3)Gal(b1-4)[Fuc(a1-3)]GlcNAc
# Procedure, shortened: as §1
# [5] = molecular target: Neu5Ac(a2-3)Gal(b1-3)[Neu5Ac(a2-3)Gal(b1-4)]GlcNAc
# Procedure, shortened: as §1
# [6] = molecular target: Neu5Ac(a2-3)Gal(b1-3)[Neu5Ac(a2-6)]GalNAc
# Procedure, shortened: as §1
# Neu5Ac(a2-3)Gal(b1-4)Glc = molecular target: Neu5Ac(a2-3)Gal(b1-4)Glc
# Procedure, shortened: as §1
# [7] = molecular target: Neu5Ac(a2-3)Gal(b1-4)GlcNAc
# Procedure, shortened: as §1
# [8] = molecular target: Neu5Ac(a2-3)Gal(b1-4)GlcNAc(b1-2)Man(a1-3)[GlcNAc(b1-2)Man(b1-4)GlcNAc(b1-2)Man(a1-6)]Man(b1-4)GlcNAc(b1-4)GlcNAc
# Procedure, shortened: as §1
# [9] = molecular target: Neu5Ac(a2-3)Gal(b1-4)GlcNAc(b1-2)Man(a1-3)[Neu5Ac(a2-6)Gal(b1-4)GlcNAc(b1-2)Man(a1-6)]Man(b1-4)GlcNAc(b1-4)GlcNAc
# Procedure, shortened: as §1
# [10] = molecular target: Neu5Ac(a2-3)Gal(b1-4)GlcNAc(b1-3)Gal
# Procedure, shortened: as §1
# [11] = molecular target: Neu5Ac(a2-3)Gal(b1-4)GlcNAc(b1-3)Gal(b1-3)GlcNAc
# Procedure, shortened: as §1
# [12] = molecular target: Neu5Ac(a2-3)Gal(b1-4)GlcNAc(b1-3)Gal(b1-4)GlcNAc
# Procedure, shortened: as §1
# [13] = molecular target: Neu5Ac(a2-3)Gal(b1-4)GlcNAc(b1-3)Gal(b1-4)GlcNAc(b1-3)Gal(b1-4)GlcNAc
# Procedure, shortened: as §1
# [14] = molecular target: Neu5Ac(a2-3)Gal(b1-4)GlcNAc(b1-3)Gal(b1-4)[Fuc(a1-3)]GlcNAc
# Procedure, shortened: as §1
# [15] = molecular target: Neu5Ac(a2-3)Gal(b1-4)GlcNAc(b1-3)GalNAc
# Procedure, shortened: as §1
# [16] = molecular target: Neu5Ac(a2-3)Gal(b1-4)GlcNAc(b1-6)[Gal(b1-3)]GalNAc
# Procedure, shortened: as §1
# [17] = molecular target: Neu5Ac(a2-3)Gal(b1-4)GlcNAc(b1-6)[Neu5Ac(a2-3)Gal(b1-3)]GalNAc
# Procedure, shortened: as §1
# [18] = molecular target: Neu5Ac(a2-3)Gal(b1-4)GlcNAc6S
# Procedure, shortened: as §1
# [19] = molecular target: Neu5Ac(a2-3)Gal(b1-4)[Fuc(a1-3)]GlcNAc
# Procedure, shortened: as §1
# [20] = molecular target: Neu5Ac(a2-3)Gal(b1-4)[Fuc(a1-3)]GlcNAc(b1-3)Gal
# Procedure, shortened: as §1
# [21] = molecular target: Neu5Ac(a2-3)Gal(b1-4)[Fuc(a1-3)]GlcNAc(b1-3)Gal(b1-4)GlcNAc
# Procedure, shortened: as §1
# [22] = molecular target: Neu5Ac(a2-3)Gal(b1-4)[Fuc(a1-3)]GlcNAc(b1-3)Gal(b1-4)[Fuc(a1-3)]GlcNAc(b1-3)Gal(b1-4)[Fuc(a1-3)]GlcNAc
# Procedure, shortened: as §1
# [23] = molecular target: Neu5Ac(a2-3)Gal(b1-4)[Fuc(a1-3)]GlcNAc(b1-3)GalNAc
# Procedure, shortened: as §1
# [24] = molecular target: Neu5Ac(a2-3)Gal(b1-4)[Fuc(a1-3)]GlcNAc(b1-6)[Gal(b1-3)]GalNAc
# Procedure, shortened: as §1
# [25] = molecular target: Neu5Ac(a2-3)Gal(b1-4)[Fuc(a1-3)]GlcNAc6S
# Procedure, shortened: as §1
# [26] = molecular target: Neu5Ac(a2-3)Gal6S(b1-4)GlcNAc
# Procedure, shortened: as §1
# [27] = molecular target: Neu5Ac(a2-3)Gal6S(b1-4)[Fuc(a1-3)]GlcNAc
# Procedure, shortened: as §1
# Neu5Ac(a2-3)GalNAc = molecular target: Neu5Ac(a2-3)GalNAc
# Procedure, shortened: as §1
# [28] = molecular target: Neu5Ac(a2-3)GalNAc(b1-4)GlcNAc
# Procedure, shortened: as §1
# [29] = molecular target: Neu5Ac(a2-3)[GalNAc(b1-4)]Gal(b1-4)Glc
# Procedure, shortened: as §1
# [30] = molecular target: Neu5Ac(a2-3)[GalNAc(b1-4)]Gal(b1-4)GlcNAc
# Procedure, shortened: as §1
# [31] = molecular target: Neu5Ac(a2-3)[GalNAc(b1-4)]Gal(b1-4)GlcNAc(b1-3)GalNAc
# Procedure, shortened: as §1
# [32] = molecular target: Neu5Ac(a2-3)[Neu5Ac(a2-6)]GalNAc
# Procedure, shortened: as §1
# Neu5Ac(a2-6)Gal = molecular target: Neu5Ac(a2-6)Gal
# Procedure, shortened: as §1
# [33] = molecular target: Neu5Ac(a2-6)Gal(b1-3)GlcNAc(b1-3)[Gal(b1-4)GlcNAc(b1-6)]Gal(b1-4)Glc
# Procedure, shortened: as §1
# Neu5Ac(a2-6)Gal(b1-4)Glc = molecular target: Neu5Ac(a2-6)Gal(b1-4)Glc
# Procedure, shortened: as §1
# [34] = molecular target: Neu5Ac(a2-6)Gal(b1-4)GlcNAc
# Procedure, shortened: as §1
# [35] = molecular target: Neu5Ac(a2-6)Gal(b1-4)GlcNAc(b1-2)Man(a1-3)Man(b1-4)GlcNAc(b1-4)GlcNAc
# Procedure, shortened: as §1
# [36] = molecular target: Neu5Ac(a2-6)Gal(b1-4)GlcNAc(b1-2)Man(a1-3)[Gal(b1-4)GlcNAc(b1-2)Man(a1-6)]Man(b1-4)GlcNAc(b1-4)GlcNAc
# Procedure, shortened: as §1
binder,measurement,setting,value
"DCL-1 (Homo sapiens), Q8IX05 (protein) MLRAALPALLLPLLGLAAAAVADCPSSTWIQFQDSCYIFLQEAIKVESIEDVRNQCTDHGADMISIHNEEENAFILDTLKKQWKGPDDILLGMFYDTDDASFKWFDNSNMTFDKWTDQDDDEDLVDTCAFLHIKTGEWKKGNCEVSSVEGTLCKTAIPYKRKYLSDNHILISALVIASTVILTVLGAIIWFLYKKHSDSRFTTVFSTAPQSPYNEDCVLVVGEENEYPVQFD",glycan array binding signal (z-score),[1],0.514
same,glycan array binding signal (z-score),[2],1.14
same,glycan array binding signal (z-score),[3],-0.194
same,glycan array binding signal (z-score),[4],-0.022
same,glycan array binding signal (z-score),[5],0.512
same,glycan array binding signal (z-score),[6],0.682
same,glycan array binding signal (z-score),Neu5Ac(a2-3)Gal(b1-4)Glc,0.171
same,glycan array binding signal (z-score),[7],0.242
same,glycan array binding signal (z-score),[8],-1.07
same,glycan array binding signal (z-score),[9],0.261
same,glycan array binding signal (z-score),[10],1.98
same,glycan array binding signal (z-score),[11],0.181
same,glycan array binding signal (z-score),[12],-0.879
same,glycan array binding signal (z-score),[13],-0.828
same,glycan array binding signal (z-score),[14],-0.479
same,glycan array binding signal (z-score),[15],-1
same,glycan array binding signal (z-score),[16],-0.762
same,glycan array binding signal (z-score),[17],0.223
same,glycan array binding signal (z-score),[18],0.043
same,glycan array binding signal (z-score),[19],0.27
same,glycan array binding signal (z-score),[20],0.066
same,glycan array binding signal (z-score),[21],-0.487
same,glycan array binding signal (z-score),[22],-0.198
same,glycan array binding signal (z-score),[23],5.12
same,glycan array binding signal (z-score),[24],0.161
same,glycan array binding signal (z-score),[25],0.133
same,glycan array binding signal (z-score),[26],0.451
same,glycan array binding signal (z-score),[27],-0.162
same,glycan array binding signal (z-score),Neu5Ac(a2-3)GalNAc,0.625
same,glycan array binding signal (z-score),[28],-0.719
same,glycan array binding signal (z-score),[29],0.636
same,glycan array binding signal (z-score),[30],0.206
same,glycan array binding signal (z-score),[31],1.11
same,glycan array binding signal (z-score),[32],-1.09
same,glycan array binding signal (z-score),Neu5Ac(a2-6)Gal,-0.424
same,glycan array binding signal (z-score),[33],-0.428
same,glycan array binding signal (z-score),Neu5Ac(a2-6)Gal(b1-4)Glc,-0.195
same,glycan array binding signal (z-score),[34],-0.393
same,glycan array binding signal (z-score),[35],-0.43
same,glycan array binding signal (z-score),[36],0.469
